The data set in a line: general procedure: Fmoc solid-phase peptide synthesis; Fmoc-L-Lys(Mtt)-Alko-PEG resin. Particulars: whole synthesis, scale 0.10 mmol.

In the case of H-8DMAP-OH, the isolated mass worked out at 192 mg.

(Values after patent publication US20170008927A1 (The University of Tokyo, priority 2014, published 2017).)
